Assay results published in paper PMC10944485, “Structure of full-length ERGIC-53 in complex with MCFD2 for cargo transport” (Nature Communications, 2024).
These are yes or no findings as the source states them, for the method shown. A result given as binding can be weak or reduced; the word gives no strength.

Amino acid sequences for entries named in this document (tags omitted). A change or cut given only in a name is not applied to a line headed by its entry.
UniProt P49257: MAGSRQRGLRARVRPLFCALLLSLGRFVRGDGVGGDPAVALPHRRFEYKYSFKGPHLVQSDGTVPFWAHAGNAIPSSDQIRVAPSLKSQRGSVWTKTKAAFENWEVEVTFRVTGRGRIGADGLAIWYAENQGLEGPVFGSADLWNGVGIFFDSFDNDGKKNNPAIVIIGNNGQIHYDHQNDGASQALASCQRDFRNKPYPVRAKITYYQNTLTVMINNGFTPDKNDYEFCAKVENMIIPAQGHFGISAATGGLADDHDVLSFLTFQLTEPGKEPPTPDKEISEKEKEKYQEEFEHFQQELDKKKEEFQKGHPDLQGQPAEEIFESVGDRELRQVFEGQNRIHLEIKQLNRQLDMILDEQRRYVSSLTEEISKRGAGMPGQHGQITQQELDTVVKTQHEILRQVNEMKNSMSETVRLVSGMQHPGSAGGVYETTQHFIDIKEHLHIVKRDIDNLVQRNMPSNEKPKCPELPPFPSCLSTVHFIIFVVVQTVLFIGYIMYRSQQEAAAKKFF

Target: ERGIC-53 ΔH34 mutant with a C-terminal FLAG (human) (UniProt P49257)
Test: cryo-EM structure; ERGIC-53 ΔH34-MCFD2 complex, 1.7 mg/ml; both purified

- binding: binds
B1: human MCFD2 lumen domain (residues 27-146) (domain or fragment, UniProt Q8NI22 27-146, looked up)
chain: EEPAASFSQPGSMGLDKNTVHDQEHIMEHLEGVINKPEAEMSPQELQLHYFKMHDYDGNNLLDGLELSTAITHVHKEEGSEQAPLMSEDELINIIDGVLRDDDKNNDGYIDYAEFAKSLQ
notes: MCFD2, human, lumen domain, residues 27-146, in pET15b; Thrombin cleavage of the pET15b His tag probably leaves a few vector residues at the N-terminus (surmised); also called multiple coagulation factor deficiency 2; source: E. coli BL21 (DE3), purified (Ni-NTA, MonoQ, thrombin cleavage, SEC); not shown: His tag, N-terminal, cleaved
